From the supplement of paper PMC7666118 come the findings set out here.

Chains of the proteins cited; added tags and fusions are not shown. Lines headed by an entry give the natural chain unless they say otherwise; changes in a name come on top.
UniProt O96019, whole entry: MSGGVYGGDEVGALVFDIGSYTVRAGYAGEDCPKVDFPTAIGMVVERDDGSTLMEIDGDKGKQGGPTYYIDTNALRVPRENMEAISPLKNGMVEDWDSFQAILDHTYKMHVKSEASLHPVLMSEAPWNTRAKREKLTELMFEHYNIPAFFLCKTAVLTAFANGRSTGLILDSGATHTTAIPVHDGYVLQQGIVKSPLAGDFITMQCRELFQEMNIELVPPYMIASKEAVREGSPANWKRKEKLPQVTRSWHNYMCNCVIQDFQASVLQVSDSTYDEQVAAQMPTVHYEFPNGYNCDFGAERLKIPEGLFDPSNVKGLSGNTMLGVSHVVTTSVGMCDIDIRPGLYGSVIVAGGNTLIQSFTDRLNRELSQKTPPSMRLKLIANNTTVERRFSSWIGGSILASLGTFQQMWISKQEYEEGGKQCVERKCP
UniProt Q9NQW6: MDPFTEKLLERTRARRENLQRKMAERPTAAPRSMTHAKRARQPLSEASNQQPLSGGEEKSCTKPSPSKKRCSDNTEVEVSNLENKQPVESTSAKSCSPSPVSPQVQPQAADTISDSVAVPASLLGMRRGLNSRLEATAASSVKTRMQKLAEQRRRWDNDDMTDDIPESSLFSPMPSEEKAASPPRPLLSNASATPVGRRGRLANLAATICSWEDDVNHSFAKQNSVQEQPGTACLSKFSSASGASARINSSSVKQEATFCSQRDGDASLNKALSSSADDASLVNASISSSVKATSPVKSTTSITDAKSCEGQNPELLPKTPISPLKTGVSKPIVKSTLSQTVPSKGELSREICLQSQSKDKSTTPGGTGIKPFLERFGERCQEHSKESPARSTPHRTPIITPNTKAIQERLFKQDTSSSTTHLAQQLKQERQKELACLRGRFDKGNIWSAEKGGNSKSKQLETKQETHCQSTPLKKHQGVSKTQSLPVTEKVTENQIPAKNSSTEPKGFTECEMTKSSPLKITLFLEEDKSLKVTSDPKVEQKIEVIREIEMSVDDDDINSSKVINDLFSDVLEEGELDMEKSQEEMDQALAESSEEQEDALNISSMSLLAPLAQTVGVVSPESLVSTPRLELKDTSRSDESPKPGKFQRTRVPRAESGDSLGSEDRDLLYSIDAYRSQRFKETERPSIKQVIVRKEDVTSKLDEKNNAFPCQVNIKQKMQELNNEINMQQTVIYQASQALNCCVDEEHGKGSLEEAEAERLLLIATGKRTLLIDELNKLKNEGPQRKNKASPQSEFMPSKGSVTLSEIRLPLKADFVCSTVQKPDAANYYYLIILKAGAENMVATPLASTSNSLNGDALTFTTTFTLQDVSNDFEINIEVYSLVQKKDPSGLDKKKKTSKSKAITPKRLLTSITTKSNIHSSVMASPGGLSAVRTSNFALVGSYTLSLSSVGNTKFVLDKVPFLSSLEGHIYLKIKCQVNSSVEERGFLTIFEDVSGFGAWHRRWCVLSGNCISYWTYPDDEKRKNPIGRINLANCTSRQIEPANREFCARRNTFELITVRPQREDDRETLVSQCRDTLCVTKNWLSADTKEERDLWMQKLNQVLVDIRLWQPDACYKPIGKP
UniProt Q9GZN1, whole entry: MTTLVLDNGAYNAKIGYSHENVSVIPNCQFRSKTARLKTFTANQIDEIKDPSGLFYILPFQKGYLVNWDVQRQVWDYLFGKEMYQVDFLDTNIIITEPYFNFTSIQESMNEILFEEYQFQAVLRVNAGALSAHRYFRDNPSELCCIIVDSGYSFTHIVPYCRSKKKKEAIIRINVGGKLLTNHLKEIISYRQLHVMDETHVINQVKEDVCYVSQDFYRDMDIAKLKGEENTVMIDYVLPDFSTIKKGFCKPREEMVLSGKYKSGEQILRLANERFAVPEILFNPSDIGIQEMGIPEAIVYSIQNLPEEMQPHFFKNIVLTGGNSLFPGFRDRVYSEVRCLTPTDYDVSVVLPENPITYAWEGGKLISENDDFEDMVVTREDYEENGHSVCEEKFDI
UniProt P09525: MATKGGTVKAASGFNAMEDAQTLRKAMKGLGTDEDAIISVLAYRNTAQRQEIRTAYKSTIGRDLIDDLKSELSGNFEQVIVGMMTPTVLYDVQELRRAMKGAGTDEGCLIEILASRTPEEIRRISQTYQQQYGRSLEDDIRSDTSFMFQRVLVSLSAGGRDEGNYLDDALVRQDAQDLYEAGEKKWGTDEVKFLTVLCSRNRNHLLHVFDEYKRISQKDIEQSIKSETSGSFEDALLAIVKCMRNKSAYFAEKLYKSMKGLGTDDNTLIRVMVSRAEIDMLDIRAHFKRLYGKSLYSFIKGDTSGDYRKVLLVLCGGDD
UniProt Q9NYB9: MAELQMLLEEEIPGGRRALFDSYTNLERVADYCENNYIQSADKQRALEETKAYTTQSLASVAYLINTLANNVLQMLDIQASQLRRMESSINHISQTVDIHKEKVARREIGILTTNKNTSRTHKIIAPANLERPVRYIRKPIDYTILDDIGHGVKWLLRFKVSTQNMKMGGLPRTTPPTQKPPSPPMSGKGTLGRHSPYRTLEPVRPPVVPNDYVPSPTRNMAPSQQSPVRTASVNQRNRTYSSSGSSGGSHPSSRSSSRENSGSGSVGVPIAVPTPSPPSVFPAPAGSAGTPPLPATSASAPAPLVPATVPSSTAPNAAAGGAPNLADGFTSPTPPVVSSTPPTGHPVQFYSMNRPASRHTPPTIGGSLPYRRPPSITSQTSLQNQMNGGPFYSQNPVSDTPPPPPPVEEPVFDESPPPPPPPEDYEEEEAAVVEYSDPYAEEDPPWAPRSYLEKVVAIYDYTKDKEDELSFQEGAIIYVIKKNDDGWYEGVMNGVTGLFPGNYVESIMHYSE
UniProt Q92688: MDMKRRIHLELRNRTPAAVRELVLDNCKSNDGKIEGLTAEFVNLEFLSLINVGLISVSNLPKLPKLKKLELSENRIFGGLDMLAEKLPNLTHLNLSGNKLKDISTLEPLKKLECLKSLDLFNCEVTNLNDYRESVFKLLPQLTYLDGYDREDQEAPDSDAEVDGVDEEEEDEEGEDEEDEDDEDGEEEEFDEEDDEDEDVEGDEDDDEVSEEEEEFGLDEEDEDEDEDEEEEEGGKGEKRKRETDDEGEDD
UniProt P49189: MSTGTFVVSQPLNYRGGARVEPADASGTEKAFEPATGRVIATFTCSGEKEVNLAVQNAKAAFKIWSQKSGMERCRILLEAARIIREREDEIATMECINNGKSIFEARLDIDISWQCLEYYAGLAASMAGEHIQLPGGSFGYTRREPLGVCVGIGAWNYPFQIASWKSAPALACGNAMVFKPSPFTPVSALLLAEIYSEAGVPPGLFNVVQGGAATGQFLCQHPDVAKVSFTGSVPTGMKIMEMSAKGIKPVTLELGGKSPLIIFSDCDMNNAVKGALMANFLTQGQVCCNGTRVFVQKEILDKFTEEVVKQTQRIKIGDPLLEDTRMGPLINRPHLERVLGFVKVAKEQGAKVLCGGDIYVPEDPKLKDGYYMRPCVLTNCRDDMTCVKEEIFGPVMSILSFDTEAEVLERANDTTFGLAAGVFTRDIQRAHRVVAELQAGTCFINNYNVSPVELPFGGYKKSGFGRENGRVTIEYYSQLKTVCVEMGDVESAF
UniProt Q9Y2T2: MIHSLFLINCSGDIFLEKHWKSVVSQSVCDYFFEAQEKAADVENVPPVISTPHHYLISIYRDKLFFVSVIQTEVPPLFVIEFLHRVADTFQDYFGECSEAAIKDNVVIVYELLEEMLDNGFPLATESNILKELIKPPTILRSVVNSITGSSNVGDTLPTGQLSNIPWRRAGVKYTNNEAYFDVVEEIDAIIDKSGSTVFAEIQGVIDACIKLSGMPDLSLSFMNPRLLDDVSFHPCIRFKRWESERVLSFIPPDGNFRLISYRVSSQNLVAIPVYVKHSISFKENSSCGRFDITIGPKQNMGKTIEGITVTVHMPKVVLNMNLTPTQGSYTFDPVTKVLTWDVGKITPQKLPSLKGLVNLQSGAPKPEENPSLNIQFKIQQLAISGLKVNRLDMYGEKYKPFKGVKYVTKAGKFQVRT
UniProt P51825: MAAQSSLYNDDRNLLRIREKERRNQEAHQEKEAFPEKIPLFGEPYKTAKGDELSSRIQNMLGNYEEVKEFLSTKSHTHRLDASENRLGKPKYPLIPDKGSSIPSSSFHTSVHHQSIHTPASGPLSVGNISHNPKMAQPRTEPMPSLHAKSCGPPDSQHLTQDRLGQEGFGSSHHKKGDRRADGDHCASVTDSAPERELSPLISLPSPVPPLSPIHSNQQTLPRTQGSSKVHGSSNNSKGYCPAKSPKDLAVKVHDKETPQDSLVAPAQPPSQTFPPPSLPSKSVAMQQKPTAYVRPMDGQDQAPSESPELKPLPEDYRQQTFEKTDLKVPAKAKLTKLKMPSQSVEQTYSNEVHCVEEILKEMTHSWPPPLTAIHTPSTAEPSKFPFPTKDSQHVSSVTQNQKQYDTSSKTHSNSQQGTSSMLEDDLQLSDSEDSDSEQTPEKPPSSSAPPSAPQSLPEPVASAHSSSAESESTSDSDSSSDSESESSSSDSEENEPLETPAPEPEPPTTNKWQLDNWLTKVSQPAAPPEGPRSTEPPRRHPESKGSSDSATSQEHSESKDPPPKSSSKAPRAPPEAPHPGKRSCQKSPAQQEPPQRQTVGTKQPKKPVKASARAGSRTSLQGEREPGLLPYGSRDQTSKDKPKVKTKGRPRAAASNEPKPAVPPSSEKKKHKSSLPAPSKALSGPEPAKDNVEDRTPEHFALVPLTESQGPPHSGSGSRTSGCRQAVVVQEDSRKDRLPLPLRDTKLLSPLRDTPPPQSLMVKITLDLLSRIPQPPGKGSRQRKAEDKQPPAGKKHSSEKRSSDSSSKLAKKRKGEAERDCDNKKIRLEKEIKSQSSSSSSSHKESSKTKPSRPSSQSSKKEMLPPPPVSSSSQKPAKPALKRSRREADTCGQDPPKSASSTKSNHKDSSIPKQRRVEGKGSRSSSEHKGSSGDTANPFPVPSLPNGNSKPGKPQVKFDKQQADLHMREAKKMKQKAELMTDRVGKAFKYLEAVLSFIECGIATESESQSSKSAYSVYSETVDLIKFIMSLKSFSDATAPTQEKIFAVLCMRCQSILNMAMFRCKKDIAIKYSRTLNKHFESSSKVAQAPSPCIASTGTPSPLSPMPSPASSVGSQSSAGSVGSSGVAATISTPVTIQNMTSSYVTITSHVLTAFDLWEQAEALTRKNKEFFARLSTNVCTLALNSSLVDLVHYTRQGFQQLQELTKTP
UniProt Q9H845: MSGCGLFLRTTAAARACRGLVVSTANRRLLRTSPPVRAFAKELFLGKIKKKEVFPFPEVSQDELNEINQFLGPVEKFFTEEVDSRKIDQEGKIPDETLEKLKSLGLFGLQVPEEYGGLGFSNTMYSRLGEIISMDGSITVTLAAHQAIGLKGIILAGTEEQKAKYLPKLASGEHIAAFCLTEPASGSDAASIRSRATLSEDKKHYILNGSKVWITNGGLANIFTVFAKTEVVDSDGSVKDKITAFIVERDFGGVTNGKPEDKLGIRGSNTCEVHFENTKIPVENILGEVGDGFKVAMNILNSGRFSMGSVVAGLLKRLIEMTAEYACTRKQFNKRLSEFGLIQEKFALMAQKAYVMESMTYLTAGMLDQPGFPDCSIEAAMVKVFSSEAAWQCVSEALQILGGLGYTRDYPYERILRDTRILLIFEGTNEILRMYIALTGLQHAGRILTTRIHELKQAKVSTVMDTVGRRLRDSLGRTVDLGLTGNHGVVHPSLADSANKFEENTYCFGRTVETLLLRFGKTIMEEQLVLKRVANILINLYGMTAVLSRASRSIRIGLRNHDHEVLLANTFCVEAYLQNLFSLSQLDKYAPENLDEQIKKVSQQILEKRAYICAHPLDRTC
UniProt Q9NPJ3: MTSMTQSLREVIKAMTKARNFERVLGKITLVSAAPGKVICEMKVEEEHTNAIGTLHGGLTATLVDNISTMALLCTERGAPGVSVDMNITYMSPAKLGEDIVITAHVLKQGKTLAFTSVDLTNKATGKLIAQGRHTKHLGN
UniProt Q6DHV7: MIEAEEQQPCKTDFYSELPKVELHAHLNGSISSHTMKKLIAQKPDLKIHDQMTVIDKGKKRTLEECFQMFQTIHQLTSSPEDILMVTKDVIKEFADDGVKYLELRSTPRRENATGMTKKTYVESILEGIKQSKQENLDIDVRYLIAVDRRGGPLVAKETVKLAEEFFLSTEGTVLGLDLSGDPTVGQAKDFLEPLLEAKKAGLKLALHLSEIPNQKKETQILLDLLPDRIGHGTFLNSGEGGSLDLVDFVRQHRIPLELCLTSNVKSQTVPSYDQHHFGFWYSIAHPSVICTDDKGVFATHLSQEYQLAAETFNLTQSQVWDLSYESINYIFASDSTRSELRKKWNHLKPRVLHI

Some of the results follow.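 Rule for the calls: active = dose-dependent thermal stabilisation significant by F-test of dose-response against flat model at 10% FDR; inactive = not significant.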

Compound in the experiment: Nc1nc2c(ncn2[C@@H]2O[C@H](COP(=O)(O)OP(=O)(O)OP(=O)(O)O)[C@@H](O)[C@H]2O)c(=O)[nH]1
Put plainly: dose-dependent thermal stabilisation call (2D-TPP, DLPTP, 10% FDR) (binary (1 = stabilised)); higher = stabilised by the compound. Conditions: system: Jurkat gel-filtered lysate; concentration range 1-500 µM. As to the method: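 2D thermal proteome profiling in gel-filtered Jurkat E6.1 lysate (2 mg/ml) treated with NaGTP (0, 1, 10, 100, 500 uM) for 10 min at room temperature, then heated 3 min at one of 12 temperatures (42-63.9 C). Soluble protein was quantified by TMT10 MS. The value is the DLPTP call of the paper: dose-dependent thermal stabilisation over all temperatures at 10% FDR (F-test of a dose-response against a flat model); one experiment, one call per tested protein.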
Consider ANKRD17 (UniProt O75179), for which the “dose-dependent thermal stabilisation call” value was inactive: 0.

ABCF2 (UniProt Q9UG63): the “dose-dependent thermal stabilisation call” value was active: 1. As to ADO (UniProt Q96SZ5), the “dose-dependent thermal stabilisation call” value was inactive: 0. Consider ANKMY2 (UniProt Q8IV38), for which the “dose-dependent thermal stabilisation call” value was active: 1.

Consider ACTL6A (UniProt O96019), for which the “dose-dependent thermal stabilisation call” value is inactive: 0.

ANLN (UniProt Q9NQW6): the “dose-dependent thermal stabilisation call” value is inactive: 0. For the target AMMECR1 (UniProt Q9Y4X0), the “dose-dependent thermal stabilisation call” value was inactive: 0.

For ANXA5 (UniProt P08758), the “dose-dependent thermal stabilisation call” value was inactive: 0.

On to ANKHD1 (UniProt Q8IWZ3), for which the “dose-dependent thermal stabilisation call” value was inactive: 0. Under ACTR6 (UniProt Q9GZN1) stands inactive: 0; under AGO4 (UniProt Q9HCK5), inactive: 0. On to ANXA4 (UniProt P09525), for which the “dose-dependent thermal stabilisation call” value was active: 1. With ABI2 (UniProt Q9NYB9) the figure was inactive: 0; with AK6 (UniProt Q9Y3D8), inactive: 0. Take AP1M1 (UniProt Q9BXS5): the “dose-dependent thermal stabilisation call” value is active: 1. On to ANP32B (UniProt Q92688), for which the “dose-dependent thermal stabilisation call” value is inactive: 0. Regarding ALAD (UniProt P13716), the “dose-dependent thermal stabilisation call” value is inactive: 0. Take ALDH9A1 (UniProt P49189): the “dose-dependent thermal stabilisation call” value was active: 1.

Turning to AIF1L (UniProt Q9BQI0), the “dose-dependent thermal stabilisation call” value was inactive: 0. For the target AKT1S1 (UniProt Q96B36), the “dose-dependent thermal stabilisation call” value was inactive: 0.

As to ALDOA (UniProt P04075), the “dose-dependent thermal stabilisation call” value is inactive: 0. Under ANAPC1 (UniProt Q9H1A4) stands inactive: 0; under ARF5 (UniProt P84085), active: 1; under ARHGAP21 (UniProt Q5T5U3), inactive: 0.

Take AHCYL2 (UniProt Q96HN2): the “dose-dependent thermal stabilisation call” value was inactive: 0.

Take AP3M1 (UniProt Q9Y2T2): the “dose-dependent thermal stabilisation call” value was inactive: 0. Consider ABLIM1 (UniProt O14639), for which the “dose-dependent thermal stabilisation call” value is inactive: 0.

As for ARHGAP27 (UniProt Q6ZUM4), the “dose-dependent thermal stabilisation call” value was active: 1. In the case of ACACA (UniProt Q13085), the “dose-dependent thermal stabilisation call” value is inactive: 0. With ANXA6 (UniProt P08133) the figure was inactive: 0. As to AFF1 (UniProt P51825), the “dose-dependent thermal stabilisation call” value is inactive: 0. With ADA (UniProt P00813) the figure was inactive: 0; with ACAD9 (UniProt Q9H845), inactive: 0. Regarding ANP32A (UniProt P39687), the “dose-dependent thermal stabilisation call” value is inactive: 0. Turning to AKAP2 (UniProt Q9Y2D5), the “dose-dependent thermal stabilisation call” value is inactive: 0.

Regarding ABI3 (UniProt Q9P2A4), the “dose-dependent thermal stabilisation call” value is inactive: 0.

In the case of ACOT13 (UniProt Q9NPJ3), the “dose-dependent thermal stabilisation call” value was inactive: 0. Under ARAP1 (UniProt Q96P48) stands inactive: 0.

ADAL (UniProt Q6DHV7): the “dose-dependent thermal stabilisation call” value was active: 1. Regarding ACTR3 (UniProt P61158), the “dose-dependent thermal stabilisation call” value was active: 1.
